Reference: publication doi:10.1101/2025.02.01.635992
No constants are given. Whether binding was seen depends on the method and setting. Binding seen in cells or lysates may run through a third protein. Some results given as binding are weak or reduced against the parent protein; the word gives no strength.

Chains of the proteins cited; added tags and fusions are not shown. Lines headed by an entry give the natural chain unless they say otherwise; changes in a name come on top.
UniProt Q9Y519, whole entry: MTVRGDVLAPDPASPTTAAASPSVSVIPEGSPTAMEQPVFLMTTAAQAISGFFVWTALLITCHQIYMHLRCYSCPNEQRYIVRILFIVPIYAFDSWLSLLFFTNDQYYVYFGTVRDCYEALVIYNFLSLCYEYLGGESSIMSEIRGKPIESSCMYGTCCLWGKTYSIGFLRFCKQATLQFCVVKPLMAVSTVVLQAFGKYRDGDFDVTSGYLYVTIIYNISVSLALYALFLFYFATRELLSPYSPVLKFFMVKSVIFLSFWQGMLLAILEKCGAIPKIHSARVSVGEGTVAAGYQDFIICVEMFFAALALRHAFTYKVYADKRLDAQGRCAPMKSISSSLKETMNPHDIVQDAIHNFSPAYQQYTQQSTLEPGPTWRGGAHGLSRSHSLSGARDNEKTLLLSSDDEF
UniProt Q93050, whole entry: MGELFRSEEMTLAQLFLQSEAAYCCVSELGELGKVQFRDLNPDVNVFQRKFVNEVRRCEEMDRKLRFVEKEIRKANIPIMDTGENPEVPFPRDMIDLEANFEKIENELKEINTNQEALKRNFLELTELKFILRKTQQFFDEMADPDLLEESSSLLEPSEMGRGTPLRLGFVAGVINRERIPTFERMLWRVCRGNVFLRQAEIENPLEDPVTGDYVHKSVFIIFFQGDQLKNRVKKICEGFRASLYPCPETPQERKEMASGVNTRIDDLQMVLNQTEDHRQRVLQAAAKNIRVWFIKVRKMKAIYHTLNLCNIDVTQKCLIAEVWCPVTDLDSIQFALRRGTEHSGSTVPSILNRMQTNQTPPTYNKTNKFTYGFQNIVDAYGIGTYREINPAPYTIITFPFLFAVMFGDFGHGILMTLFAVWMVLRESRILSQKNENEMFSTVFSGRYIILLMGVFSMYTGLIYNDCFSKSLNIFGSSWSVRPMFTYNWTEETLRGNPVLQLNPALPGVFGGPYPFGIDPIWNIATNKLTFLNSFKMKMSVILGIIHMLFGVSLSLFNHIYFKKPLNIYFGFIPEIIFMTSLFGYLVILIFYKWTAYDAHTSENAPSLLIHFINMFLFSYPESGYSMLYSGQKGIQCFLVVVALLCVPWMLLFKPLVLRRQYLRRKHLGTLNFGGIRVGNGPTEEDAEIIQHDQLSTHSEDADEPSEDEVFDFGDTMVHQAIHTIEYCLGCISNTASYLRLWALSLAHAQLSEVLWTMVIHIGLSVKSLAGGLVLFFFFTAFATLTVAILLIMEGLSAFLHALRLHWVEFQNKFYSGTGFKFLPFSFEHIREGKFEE
UniProt Q9Z1G4, whole entry: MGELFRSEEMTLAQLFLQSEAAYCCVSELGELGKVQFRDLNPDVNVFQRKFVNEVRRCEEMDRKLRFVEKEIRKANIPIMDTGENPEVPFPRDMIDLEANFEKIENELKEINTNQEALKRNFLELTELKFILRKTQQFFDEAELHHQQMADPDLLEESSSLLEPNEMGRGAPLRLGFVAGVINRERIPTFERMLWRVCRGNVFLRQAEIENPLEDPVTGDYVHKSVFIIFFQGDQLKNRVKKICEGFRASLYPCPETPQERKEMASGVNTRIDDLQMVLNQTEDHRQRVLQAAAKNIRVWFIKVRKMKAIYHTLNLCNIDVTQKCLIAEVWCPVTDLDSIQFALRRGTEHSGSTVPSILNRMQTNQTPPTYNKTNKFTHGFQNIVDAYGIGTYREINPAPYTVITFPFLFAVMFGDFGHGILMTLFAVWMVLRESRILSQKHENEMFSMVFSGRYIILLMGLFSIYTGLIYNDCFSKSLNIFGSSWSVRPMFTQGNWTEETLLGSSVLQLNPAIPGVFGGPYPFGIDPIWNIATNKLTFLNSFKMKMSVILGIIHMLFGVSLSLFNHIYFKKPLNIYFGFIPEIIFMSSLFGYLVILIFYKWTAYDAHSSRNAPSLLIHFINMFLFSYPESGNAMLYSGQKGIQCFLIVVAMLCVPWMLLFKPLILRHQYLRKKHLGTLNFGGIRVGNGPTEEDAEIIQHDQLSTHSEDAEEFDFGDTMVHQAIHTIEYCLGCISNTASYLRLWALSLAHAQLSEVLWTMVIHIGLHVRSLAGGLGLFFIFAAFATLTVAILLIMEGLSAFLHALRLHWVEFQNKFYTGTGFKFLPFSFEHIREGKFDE
UniProt P50516, whole entry: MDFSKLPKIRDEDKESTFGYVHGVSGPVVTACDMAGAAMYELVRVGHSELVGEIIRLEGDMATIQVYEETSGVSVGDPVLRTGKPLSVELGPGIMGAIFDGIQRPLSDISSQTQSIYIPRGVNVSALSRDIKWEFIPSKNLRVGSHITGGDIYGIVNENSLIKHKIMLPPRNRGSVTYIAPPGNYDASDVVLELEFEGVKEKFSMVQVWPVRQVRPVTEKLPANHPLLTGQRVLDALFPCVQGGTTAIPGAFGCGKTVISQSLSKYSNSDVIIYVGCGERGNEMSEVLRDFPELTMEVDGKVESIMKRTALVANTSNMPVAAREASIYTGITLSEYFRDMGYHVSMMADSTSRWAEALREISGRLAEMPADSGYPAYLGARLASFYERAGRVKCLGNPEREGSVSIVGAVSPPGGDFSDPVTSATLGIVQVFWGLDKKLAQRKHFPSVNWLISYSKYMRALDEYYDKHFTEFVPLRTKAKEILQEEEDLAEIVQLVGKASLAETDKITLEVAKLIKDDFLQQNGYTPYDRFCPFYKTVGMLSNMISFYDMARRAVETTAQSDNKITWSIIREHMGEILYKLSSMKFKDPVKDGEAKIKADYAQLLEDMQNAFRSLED
UniProt Q8BVE3, whole entry: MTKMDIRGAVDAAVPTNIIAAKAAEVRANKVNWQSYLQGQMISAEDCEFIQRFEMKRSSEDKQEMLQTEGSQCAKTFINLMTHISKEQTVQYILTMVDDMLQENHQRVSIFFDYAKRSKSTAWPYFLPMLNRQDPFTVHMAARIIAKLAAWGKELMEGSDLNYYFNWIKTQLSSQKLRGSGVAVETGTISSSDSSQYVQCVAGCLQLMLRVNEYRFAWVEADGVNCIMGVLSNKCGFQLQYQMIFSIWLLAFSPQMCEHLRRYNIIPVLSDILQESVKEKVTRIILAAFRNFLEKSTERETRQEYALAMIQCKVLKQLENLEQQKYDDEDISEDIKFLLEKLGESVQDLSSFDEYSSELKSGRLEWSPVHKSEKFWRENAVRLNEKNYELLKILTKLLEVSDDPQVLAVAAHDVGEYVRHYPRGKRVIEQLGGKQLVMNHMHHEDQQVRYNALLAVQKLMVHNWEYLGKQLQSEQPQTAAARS

Assays:
Assay in all cases: co-IP
[1] = target: FLAG-hTMEM184B-GFP (human) (UniProt Q9Y519)
[2] = target: ATP6V0A1 (V-ATPase subunit V0a1), human (human (endogenous in HEK293T)) (UniProt Q93050)
[3] = target: V-ATPase subunit V0a1 (ATP6V0A1), mouse (mouse (endogenous in hippocampus)) (UniProt Q9Z1G4)

binding [3] | Substance | further results
 | ATP6V0A1 (V-ATPase subunit V0a1), human (from UniProt Q93050 1-837) | binding [1]: binds
 | FLAG-hTMEM184B-GFP (from UniProt Q9Y519 1-407) | binding [2]: binds
binds | V-ATPase subunit V1A (ATP6V1A), mouse (from UniProt P50516 1-617) | 
binds | V-ATPase subunit V1H (ATP6V1H), mouse (from UniProt Q8BVE3 1-483) | 
